Results published in doi:10.1101/2022.01.05.475124.
These are yes or no findings as the source states them, for the method shown. Binding seen in cells or lysates may run through a third protein. Some binding calls cover weakened binding; strength is not graded here. For some assays here: Sequences can lack the tags named with a protein.

What was measured:
[1] = molecular target: T1, gp130-Flag (gp130 FLAG plasmid), in adult human articular chondrocytes, P40189; test: co-IP; details: remark: other sources report otherwise
T1 chain: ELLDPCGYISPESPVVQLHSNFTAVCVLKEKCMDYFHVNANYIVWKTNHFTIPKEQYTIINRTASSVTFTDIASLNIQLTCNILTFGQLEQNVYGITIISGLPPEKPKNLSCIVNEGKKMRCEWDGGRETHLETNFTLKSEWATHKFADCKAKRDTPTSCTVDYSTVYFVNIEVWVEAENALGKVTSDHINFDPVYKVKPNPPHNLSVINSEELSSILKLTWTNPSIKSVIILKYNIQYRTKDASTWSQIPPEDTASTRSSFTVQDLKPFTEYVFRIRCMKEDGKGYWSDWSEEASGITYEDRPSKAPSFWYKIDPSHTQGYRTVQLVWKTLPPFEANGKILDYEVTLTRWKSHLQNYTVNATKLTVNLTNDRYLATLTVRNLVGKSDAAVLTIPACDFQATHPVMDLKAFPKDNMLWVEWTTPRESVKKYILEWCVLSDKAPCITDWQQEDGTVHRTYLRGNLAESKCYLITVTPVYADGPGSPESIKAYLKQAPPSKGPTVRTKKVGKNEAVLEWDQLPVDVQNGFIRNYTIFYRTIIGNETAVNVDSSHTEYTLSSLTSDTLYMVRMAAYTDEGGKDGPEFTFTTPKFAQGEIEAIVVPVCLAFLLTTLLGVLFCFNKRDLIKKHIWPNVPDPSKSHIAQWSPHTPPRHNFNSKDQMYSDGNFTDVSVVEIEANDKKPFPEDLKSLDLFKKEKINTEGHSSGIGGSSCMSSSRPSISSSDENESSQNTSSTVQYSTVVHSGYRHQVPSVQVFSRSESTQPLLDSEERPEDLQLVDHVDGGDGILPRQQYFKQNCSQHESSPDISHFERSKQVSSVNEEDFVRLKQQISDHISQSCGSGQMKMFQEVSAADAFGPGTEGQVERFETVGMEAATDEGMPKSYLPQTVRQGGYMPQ

[2] = molecular target: gp130-Flag (gp130 FLAG plasmid), in adult human articular chondrocytes (UniProt P40189); test: co-IP

B1: OSMR (oncostatin M receptor), Q99650 28-979 (receptor)
chain: ERLPLTPVSLKVSTNSTRQSLHLQWTVHNLPYHQELKMVFQIQISRIETSNVIWVGNYSTTVKWNQVLHWSWESELPLECATHFVRIKSLVDDAKFPEPNFWSNWSSWEEVSVQDSTGQDILFVFPKDKLVEEGTNVTICYVSRNIQNNVSCYLEGKQIHGEQLDPHVTAFNLNSVPFIRNKGTNIYCEASQGNVSEGMKGIVLFVSKVLEEPKDFSCETEDFKTLHCTWDPGTDTALGWSKQPSQSYTLFESFSGEKKLCTHKNWCNWQITQDSQETYNFTLIAENYLRKRSVNILFNLTHRVYLMNPFSVNFENVNATNAIMTWKVHSIRNNFTYLCQIELHGEGKMMQYNVSIKVNGEYFLSELEPATEYMARVRCADASHFWKWSEWSGQNFTTLEAAPSEAPDVWRIVSLEPGNHTVTLFWKPLSKLHANGKILFYNVVVENLDKPSSSELHSIPAPANSTKLILDRCSYQICVIANNSVGASPASVIVISADPENKEVEEERIAGTEGGFSLSWKPQPGDVIGYVVDWCDHTQDVLGDFQWKNVGPNTTSTVISTDAFRPGVRYDFRIYGLSTKRIACLLEKKTGYSQELAPSDNPHVLVDTLTSHSFTLSWKDYSTESQPGFIQGYHVYLKSKARQCHPRFEKAVLSDGSECCKYKIDNPEEKALIVDNLKPESFYEFFITPFTSAGEGPSATFTKVTTPDEHSSMLIHILLPMVFCVLLIMVMCYLKSQWIKETCYPDIPDPYKSSILSLIKFKENPHLIIMNVSDCIPDAIEVVSKPEGTKIQFLGTRKSLTETELTKPNYLYLLPTEKNHSGPGPCICFENLTYNQAASDSGSCGHVPVSPKAPSMLGLMTSPENVLKALEKNYMNSLGEIPAGETSLNYVSQLASPMFGDKDSLPTNPVEAPHCSEYKMQMAVSLRLALPPPTENSSLSSITLLDPGEHYC
**Q.** Which binding [1] does the source give for B1 here?
**A.** binds

B2: LIFR (leukemia inhibitory factor receptor) (receptor, UniProt P42702 45-1097)
chain: QKKGAPHDLKCVTNNLQVWNCSWKAPSGTGRGTDYEVCIENRSRSCYQLEKTSIKIPALSHGDYEITINSLHDFGSSTSKFTLNEQNVSLIPDTPEILNLSADFSTSTLYLKWNDRGSVFPHRSNVIWEIKVLRKESMELVKLVTHNTTLNGKDTLHHWSWASDMPLECAIHFVEIRCYIDNLHFSGLEEWSDWSPVKNISWIPDSQTKVFPQDKVILVGSDITFCCVSQEKVLSALIGHTNCPLIHLDGENVAIKIRNISVSASSGTNVVFTTEDNIFGTVIFAGYPPDTPQQLNCETHDLKEIICSWNPGRVTALVGPRATSYTLVESFSGKYVRLKRAEAPTNESYQLLFQMLPNQEIYNFTLNAHNPLGRSQSTILVNITEKVYPHTPTSFKVKDINSTAVKLSWHLPGNFAKINFLCEIEIKKSNSVQEQRNVTIKGVENSSYLVALDKLNPYTLYTFRIRCSTETFWKWSKWSNKKQHLTTEASPSKGPDTWREWSSDGKNLIIYWKPLPINEANGKILSYNVSCSSDEETQSLSEIPDPQHKAEIRLDKNDYIISVVAKNSVGSSPPSKIASMEIPNDDLKIEQVVGMGKGILLTWHYDPNMTCDYVIKWCNSSRSEPCLMDWRKVPSNSTETVIESDEFRPGIRYNFFLYGCRNQGYQLLRSMIGYIEELAPIVAPNFTVEDTSADSILVKWEDIPVEELRGFLRGYLFYFGKGERDTSKMRVLESGRSDIKVKNITDISQKTLRIADLQGKTSYHLVLRAYTDGGVGPEKSMYVVTKENSVGLIIAILIPVAVAVIVGVVTSILCYRKREWIKETFYPDIPNPENCKALQFQKSVCEGSSALKTLEMNPCTPNNVEVLETRSAFPKIEDTEIISPVAERPEDRSDAEPENHVVVSYCPPIIEEEIPNPAADEAGGTAQVIYIDVQSMYQPQAKPEEEQENDPVGGAGYKPQMHLPINSTVEDIAAEEDLDKTAGYRPQANVNTWNLVSPDSPRSIDSNSEIVSFGSPCSINSRQFLIPPKDEDSPKSNGGGWSFTNFFQNKPND
**Q.** For B2, which binding [2] is on record?
**A.** binds
